The other results are listed elsewhere or left out.
Assays:
Test in all cases: log2 fold change, soluble protein after heating vs DMSO (PISA); higher = thermal stabilisation; K562 lysate, 10 uM; active = over 0.2 and 3.5 SD of the protein, either way, in both replicates (recomputed)
[1] = compound: CN1CC[C@H](c2c(O)cc(O)c3c(=O)cc(-c4ccccc4Cl)oc23)[C@H](O)C1 [alvocidib]
Outline: (§1)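 Log-two fold change in thermal stability relative to solvent controls is reported from duplicates. For each sample, crude K562 extract from dounce-homogenised pellets in PBS pH 7.4 with 1 mM MgCl2, at 1 mg/mL protein, was treated with 10 μM compound for 30 min. Aliquots heated for 3 min across 48°C-58°C were pooled, brought to 0.5% NP-40 at 4°C and cleared at 21,000xg for 90 min. The supernatant was quantified by TMTpro 16plex LC-MS/MS with channel sums equalised.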

Sequences of proteins named here, by UniProt entry; tags and fusion partners are left off. A change or cut given only in a name is not applied to a line headed by its entry.
UniProt Q96R06: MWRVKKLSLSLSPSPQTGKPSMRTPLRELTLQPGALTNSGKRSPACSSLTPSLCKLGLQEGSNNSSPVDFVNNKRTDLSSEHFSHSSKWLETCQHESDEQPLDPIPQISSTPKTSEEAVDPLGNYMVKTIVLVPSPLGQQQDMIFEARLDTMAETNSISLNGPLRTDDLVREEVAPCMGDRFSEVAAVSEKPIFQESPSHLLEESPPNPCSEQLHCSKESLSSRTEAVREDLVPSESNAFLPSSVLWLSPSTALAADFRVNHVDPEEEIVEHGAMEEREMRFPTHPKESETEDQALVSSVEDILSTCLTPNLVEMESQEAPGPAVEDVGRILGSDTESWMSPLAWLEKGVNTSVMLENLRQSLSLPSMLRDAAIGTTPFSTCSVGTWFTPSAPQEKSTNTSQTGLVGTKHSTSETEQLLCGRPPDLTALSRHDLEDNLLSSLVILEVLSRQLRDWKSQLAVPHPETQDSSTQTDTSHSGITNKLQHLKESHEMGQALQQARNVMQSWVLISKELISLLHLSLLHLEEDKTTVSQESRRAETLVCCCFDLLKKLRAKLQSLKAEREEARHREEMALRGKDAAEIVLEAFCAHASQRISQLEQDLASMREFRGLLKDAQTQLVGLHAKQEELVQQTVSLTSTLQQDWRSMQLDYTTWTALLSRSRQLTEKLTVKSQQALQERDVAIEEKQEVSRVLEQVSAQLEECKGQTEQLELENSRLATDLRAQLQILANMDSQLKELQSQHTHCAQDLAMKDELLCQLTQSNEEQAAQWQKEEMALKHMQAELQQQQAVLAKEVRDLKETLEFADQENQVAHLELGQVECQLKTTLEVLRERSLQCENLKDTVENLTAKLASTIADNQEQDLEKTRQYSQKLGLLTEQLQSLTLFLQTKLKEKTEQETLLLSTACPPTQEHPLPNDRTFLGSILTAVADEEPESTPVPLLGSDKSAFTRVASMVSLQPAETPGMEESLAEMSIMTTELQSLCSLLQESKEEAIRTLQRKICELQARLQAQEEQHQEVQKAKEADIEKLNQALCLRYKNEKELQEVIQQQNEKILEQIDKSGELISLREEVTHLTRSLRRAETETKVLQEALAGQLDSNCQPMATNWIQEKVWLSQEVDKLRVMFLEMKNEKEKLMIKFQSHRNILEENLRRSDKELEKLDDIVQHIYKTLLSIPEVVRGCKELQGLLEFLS
UniProt P23497: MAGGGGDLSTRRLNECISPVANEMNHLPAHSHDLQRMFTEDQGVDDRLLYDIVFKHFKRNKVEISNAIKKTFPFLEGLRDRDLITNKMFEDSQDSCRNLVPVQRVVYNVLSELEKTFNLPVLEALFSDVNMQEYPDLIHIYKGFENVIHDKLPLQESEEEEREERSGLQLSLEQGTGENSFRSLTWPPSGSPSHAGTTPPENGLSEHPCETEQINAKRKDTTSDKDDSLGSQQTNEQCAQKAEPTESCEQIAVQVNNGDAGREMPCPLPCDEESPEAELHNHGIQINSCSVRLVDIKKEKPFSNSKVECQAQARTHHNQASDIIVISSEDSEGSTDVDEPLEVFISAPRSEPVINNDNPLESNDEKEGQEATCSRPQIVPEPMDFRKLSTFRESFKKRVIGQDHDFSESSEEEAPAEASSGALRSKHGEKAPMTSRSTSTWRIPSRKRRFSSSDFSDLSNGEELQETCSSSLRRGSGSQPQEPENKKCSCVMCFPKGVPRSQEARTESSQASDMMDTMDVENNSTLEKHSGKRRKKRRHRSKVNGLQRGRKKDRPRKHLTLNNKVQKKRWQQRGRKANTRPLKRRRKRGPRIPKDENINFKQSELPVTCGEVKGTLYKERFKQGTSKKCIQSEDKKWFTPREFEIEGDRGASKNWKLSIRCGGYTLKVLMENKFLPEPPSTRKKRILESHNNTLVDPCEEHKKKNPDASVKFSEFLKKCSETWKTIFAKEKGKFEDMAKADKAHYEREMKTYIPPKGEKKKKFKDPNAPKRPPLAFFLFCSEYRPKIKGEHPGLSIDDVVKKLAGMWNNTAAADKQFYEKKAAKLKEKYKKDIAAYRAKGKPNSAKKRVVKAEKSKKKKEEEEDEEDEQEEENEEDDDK
UniProt P57768: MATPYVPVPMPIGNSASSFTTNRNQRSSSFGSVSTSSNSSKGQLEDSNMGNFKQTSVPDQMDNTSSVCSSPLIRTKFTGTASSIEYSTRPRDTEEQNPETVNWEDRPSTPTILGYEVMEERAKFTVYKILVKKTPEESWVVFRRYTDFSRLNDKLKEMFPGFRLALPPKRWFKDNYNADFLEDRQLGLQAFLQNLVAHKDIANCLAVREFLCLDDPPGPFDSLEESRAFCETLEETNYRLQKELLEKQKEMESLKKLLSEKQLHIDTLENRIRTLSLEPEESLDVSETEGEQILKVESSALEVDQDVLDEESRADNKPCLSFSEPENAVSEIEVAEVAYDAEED
UniProt Q99523, whole entry, looked up: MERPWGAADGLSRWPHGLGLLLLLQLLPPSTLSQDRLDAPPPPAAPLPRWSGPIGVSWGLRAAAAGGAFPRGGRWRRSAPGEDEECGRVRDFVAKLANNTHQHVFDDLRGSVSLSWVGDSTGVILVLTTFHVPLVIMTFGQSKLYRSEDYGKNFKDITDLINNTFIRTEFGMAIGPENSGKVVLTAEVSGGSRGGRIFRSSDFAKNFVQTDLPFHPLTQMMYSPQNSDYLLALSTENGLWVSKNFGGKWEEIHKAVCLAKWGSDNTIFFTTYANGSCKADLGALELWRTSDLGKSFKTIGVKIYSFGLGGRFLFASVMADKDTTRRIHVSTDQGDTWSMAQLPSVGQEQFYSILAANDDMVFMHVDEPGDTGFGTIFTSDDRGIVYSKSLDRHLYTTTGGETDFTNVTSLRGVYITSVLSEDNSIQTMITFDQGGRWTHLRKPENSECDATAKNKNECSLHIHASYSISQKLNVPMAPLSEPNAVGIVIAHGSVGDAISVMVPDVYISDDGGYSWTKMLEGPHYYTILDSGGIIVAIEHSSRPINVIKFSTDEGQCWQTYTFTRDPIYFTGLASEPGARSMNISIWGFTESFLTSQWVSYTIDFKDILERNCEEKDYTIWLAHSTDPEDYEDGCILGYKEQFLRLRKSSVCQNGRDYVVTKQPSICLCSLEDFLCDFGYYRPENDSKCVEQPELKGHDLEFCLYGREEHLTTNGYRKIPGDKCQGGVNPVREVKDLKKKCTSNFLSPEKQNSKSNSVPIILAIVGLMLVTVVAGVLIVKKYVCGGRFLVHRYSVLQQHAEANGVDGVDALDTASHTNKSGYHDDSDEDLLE
UniProt P62304, whole entry, looked up: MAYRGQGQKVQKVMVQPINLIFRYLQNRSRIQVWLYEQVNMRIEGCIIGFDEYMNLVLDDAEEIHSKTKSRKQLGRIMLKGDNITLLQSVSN
UniProt Q9NRH2: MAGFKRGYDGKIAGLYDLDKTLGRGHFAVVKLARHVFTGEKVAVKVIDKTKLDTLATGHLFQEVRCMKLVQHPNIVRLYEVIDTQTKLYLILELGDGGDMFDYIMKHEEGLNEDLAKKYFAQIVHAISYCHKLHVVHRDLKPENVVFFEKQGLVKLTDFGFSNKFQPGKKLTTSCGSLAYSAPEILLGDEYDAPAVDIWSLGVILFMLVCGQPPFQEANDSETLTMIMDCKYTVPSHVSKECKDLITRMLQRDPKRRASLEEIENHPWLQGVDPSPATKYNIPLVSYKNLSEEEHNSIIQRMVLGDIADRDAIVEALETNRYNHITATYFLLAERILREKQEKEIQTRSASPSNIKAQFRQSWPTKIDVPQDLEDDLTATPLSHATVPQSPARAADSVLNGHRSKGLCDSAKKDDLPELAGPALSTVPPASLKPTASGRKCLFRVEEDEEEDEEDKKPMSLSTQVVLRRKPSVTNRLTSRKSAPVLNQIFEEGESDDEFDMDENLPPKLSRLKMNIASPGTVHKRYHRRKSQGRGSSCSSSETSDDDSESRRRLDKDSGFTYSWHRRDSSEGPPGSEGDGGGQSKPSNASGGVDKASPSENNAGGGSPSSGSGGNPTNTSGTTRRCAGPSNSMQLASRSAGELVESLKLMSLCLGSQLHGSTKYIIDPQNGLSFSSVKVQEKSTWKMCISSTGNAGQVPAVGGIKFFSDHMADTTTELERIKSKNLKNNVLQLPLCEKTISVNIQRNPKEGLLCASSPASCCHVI
UniProt P52788: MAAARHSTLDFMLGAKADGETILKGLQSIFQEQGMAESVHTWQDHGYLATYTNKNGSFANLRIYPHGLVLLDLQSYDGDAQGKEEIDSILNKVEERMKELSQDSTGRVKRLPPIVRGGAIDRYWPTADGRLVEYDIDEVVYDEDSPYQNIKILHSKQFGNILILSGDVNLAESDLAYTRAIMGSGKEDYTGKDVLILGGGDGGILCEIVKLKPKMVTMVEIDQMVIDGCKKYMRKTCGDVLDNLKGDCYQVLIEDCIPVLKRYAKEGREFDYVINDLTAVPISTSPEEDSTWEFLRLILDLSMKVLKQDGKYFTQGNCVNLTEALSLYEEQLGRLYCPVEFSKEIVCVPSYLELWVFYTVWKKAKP
UniProt Q96GM5, whole entry, looked up: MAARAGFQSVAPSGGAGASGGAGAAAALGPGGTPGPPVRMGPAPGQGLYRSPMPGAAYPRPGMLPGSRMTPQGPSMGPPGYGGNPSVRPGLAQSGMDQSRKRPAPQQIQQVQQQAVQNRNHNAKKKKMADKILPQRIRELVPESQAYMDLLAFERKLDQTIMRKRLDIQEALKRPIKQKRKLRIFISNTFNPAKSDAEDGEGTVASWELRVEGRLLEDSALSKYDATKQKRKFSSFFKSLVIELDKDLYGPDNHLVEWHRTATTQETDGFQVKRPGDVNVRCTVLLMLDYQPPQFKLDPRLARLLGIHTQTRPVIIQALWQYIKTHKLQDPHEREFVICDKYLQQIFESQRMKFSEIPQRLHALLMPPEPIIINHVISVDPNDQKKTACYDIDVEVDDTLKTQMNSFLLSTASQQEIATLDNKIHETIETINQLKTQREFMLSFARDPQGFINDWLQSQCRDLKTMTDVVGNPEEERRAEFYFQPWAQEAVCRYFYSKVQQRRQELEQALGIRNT
UniProt O95721: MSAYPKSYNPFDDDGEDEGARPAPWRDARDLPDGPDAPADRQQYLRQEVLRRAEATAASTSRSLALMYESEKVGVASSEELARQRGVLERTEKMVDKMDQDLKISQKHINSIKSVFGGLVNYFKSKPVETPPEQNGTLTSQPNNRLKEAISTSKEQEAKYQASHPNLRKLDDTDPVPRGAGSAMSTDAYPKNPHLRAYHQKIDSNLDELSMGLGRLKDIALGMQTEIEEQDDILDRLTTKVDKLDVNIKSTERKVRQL
UniProt O75391: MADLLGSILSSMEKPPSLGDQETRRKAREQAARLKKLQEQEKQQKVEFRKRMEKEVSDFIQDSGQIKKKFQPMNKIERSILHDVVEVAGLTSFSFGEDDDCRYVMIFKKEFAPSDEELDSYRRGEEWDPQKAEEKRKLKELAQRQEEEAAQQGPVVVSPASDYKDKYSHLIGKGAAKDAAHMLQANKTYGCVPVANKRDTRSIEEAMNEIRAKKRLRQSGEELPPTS
UniProt P55769: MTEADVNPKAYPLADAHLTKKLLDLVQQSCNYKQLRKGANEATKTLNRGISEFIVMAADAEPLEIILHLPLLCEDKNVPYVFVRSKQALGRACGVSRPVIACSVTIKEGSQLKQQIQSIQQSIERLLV
UniProt Q16637, whole entry, looked up: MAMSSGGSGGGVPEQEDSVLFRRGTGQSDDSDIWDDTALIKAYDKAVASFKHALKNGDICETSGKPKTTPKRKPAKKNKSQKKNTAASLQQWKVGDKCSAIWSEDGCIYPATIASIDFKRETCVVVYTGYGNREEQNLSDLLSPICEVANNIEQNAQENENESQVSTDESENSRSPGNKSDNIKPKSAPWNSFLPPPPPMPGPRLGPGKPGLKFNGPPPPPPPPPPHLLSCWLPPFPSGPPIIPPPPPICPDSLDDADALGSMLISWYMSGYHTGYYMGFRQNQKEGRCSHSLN
UniProt O95295: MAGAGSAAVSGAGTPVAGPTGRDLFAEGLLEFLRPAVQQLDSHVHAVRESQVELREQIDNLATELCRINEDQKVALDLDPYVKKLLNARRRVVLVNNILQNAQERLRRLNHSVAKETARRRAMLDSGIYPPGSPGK
UniProt P62306, whole entry, looked up: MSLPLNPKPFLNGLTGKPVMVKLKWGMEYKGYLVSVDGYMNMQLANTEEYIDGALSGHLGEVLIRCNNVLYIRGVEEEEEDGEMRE
UniProt Q96EX1: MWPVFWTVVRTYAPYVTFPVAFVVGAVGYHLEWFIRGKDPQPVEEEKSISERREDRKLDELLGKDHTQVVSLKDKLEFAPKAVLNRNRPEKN
UniProt O14508, whole entry, looked up: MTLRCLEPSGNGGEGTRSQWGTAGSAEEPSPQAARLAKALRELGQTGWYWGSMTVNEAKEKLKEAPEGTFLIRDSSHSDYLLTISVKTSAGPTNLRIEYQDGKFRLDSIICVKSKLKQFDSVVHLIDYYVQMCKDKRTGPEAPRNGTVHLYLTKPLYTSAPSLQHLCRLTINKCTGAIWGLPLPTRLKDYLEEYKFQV

[2] = compound: CN1CCc2c(c3ccccc3n2Cc2ccc(C(=O)NO)cc2)C1 [Tubastatin A]
Outline: as §1

[3] = compound: CNC(=O)C1=CC=CC=C1NC2=NC(=NC=C2Cl)NC3=C(C=C(C=C3)N4CCOCC4)OC
Outline: as §1

[4] = compound: CNC(=O)c1ccc(Nc2ncc(C(F)(F)F)c(NCc3nccnc3N(C)S(C)(=O)=O)n2)cc1 [defactinib]
Outline: as §1

[5] = compound: CNc1nc(-c2ccc3c(N)n[nH]c3c2)cc(N2C[C@@H](C(=O)NC3CCCCC3)CC[C@H]2C)n1
Outline: as §1

[6] = compound: COC(=O)N[C@@H](C)CNc1nccc(-c2cn(C(C)C)nc2-c2cc(Cl)cc(NS(C)(=O)=O)c2F)n1 [encorafenib]
Outline: as §1

[7] = compound: COC(=O)[C@H](CCSC)NC(=O)C1=C(C=C(C=C1)NC[C@H](CS)N)C2=CC=CC=C2
Outline: as §1

[8] = compound: COc1cc(Nc2ncc3c(n2)-c2ccc(Cl)cc2C(c2c(F)cccc2OC)=NC3)ccc1C(=O)O [alisertib]
Outline: as §1

[9] = compound: COc1cc2nc(-c3cc(F)ccc3O)nc(N[C@@H]3CNC[C@H]3C(C)(C)O)c2cc1OC
Outline: as §1

[10] = compound: COc1cc2ncnc(Nc3ccc(F)c(Cl)c3)c2cc1OCCCN1CCOCC1 [gefitinib]
Outline: as §1

Measured: log2 fold change

SMARCAD1 isoform 2 (UniProt Q9H4L7)
inactive: [1] -0.007 | [2] -0.13 | [3] 0.037 | [4] 0.03 | [5] 0.003 | [6] 0.029 | [7] 0.052 | [8] -0.018 | [9] 0.004 | [10] 0.028

SOAT1 (UniProt P35610)
inactive: [1] -0.033 | [2] 0.086 | [3] 0.036 | [4] -0.022 | [5] -0.002 | [6] 0.065 | [7] 0.123 | [8] -0.014 | [9] -0.076 | [10] 0.047

SPAG5 (UniProt Q96R06)
inactive: [1] -0.019 | [2] -0.119 | [3] 0.031 | [4] 0.008 | [5] 0.003 | [6] 0.071 | [7] -0.081 | [8] -0.01 | [9] -0.017 | [10] 0.019

SP100 isoform 4 (UniProt P23497)
inactive: [1] -0.007 | [2] -0.019 | [3] -0.021 | [4] 0.038 | [5] -0.01 | [6] 0.021 | [7] -0.067 | [8] 0.01 | [9] -0.005 | [10] -0.051

SNX16 (UniProt P57768)
inactive: [1] -0.083 | [2] -0.018 | [3] -0.05 | [4] 0.08 | [5] 0.041 | [6] 0.01 | [7] 0.037 | [8] 0.029 | [9] -0.026 | [10] 0.007

SORT1 (UniProt Q99523)
inactive: [1] -0.018 | [2] 0.008 | [3] -0.033 | [4] -0.004 | [5] -0.003 | [6] 0.023 | [7] -0.012 | [8] -0.057 | [9] -0.005 | [10] 0.036

SMG1 (UniProt Q96Q15)
inactive: [1] 0.022 | [2] -0.05 | [3] 0.01 | [4] 0.033 | [5] -0.046 | [6] 0.016 | [7] 0 | [8] -0.02 | [9] -0.013 | [10] 0.012

SMG8 isoform 2 (UniProt Q8ND04)
inactive: [1] 0.07 | [2] -0.039 | [3] -0.032 | [4] 0.056 | [5] -0.088 | [6] 0.006 | [7] 0.009 | [8] -0.013 | [9] -0.01 | [10] 0.017

SMCR8 (UniProt Q8TEV9)
inactive: [1] -0.068 | [2] -0.006 | [3] 0.018 | [4] 0.17 | [5] 0.078 | [6] -0.054 | [7] 0.042 | [8] -0.036 | [9] 0.037 | [10] -0.05

SNRPE (UniProt P62304)
inactive: [1] -0.068 | [2] 0.023 | [3] 0.003 | [4] 0.009 | [5] 0.048 | [6] 0.043 | [7] 0.012 | [8] -0.016 | [9] 0.002 | [10] 0.005

SNRK (UniProt Q9NRH2)
inactive: [1] -0.045 | [2] -0.125 | [3] 0.104 | [4] 0.078 | [5] 0.113 | [6] 0.083 | [7] -0.014 | [8] 0.029 | [9] 0.034 | [10] 0.004

SMS (UniProt P52788)
inactive: [1] 0.018 | [2] -0.009 | [3] -0.006 | [4] -0.015 | [5] -0.006 | [6] -0.003 | [7] 0.028 | [8] 0.003 | [9] 0.006 | [10] -0.021

SMARCD1 (UniProt Q96GM5)
inactive: [1] -0.005 | [2] -0.094 | [3] -0.01 | [4] -0.005 | [5] -0.001 | [6] 0.03 | [7] 0.116 | [8] 0.019 | [9] -0.002 | [10] -0.005

SNX15 (UniProt Q9NRS6)
inactive: [1] 0.007 | [2] -0.028 | [3] 0.006 | [4] 0.076 | [5] -0.096 | [6] 0.002 | [7] -0.009 | [8] -0.03 | [9] 0.004 | [10] 0.003

SNAP29 (UniProt O95721)
inactive: [1] -0.029 | [2] 0.049 | [3] 0.008 | [4] 0.004 | [5] 0.035 | [6] -0.006 | [7] -0.004 | [8] 0.017 | [9] -0.018 | [10] 0.058

SPAG7 (UniProt O75391)
inactive: [1] -0.016 | [2] 0.038 | [3] -0.041 | [4] -0.003 | [5] 0.009 | [6] 0.018 | [7] -0.024 | [8] -0.005 | [9] 0.023 | [10] -0.013

SMCHD1 (UniProt A6NHR9)
inactive: [1] -0.044 | [2] -0.121 | [3] 0.015 | [4] -0.01 | [5] -0.01 | [6] 0.01 | [7] 0.089 | [8] 0.002 | [9] 0.006 | [10] -0.001

SNRNP48 (UniProt Q6IEG0)
inactive: [1] -0.044 | [2] -0.056 | [3] 0.002 | [4] -0.062 | [5] -0.038 | [6] 0.046 | [7] -0.076 | [8] 0.076 | [9] -0.037 | [10] -0.003

SNU13 (UniProt P55769)
inactive: [1] 0.024 | [2] -0.017 | [3] 0.002 | [4] 0.039 | [5] -0.006 | [6] 0.01 | [7] 0.016 | [8] -0.029 | [9] -0.013 | [10] -0.056

SMN1 (UniProt Q16637)
inactive: [1] -0.05 | [2] -0.173 | [3] 0.017 | [4] -0.023 | [5] -0.01 | [6] 0.03 | [7] 0.149 | [8] 0.062 | [9] -0.024 | [10] -0.064

Quoted from the listing (2 entries):
SNRNP48 (UniProt Q6IEG0)
inactive: [1] -0.044 | [2] -0.056 | [3] 0.002 | [4] -0.062 | [5] -0.038 | [6] 0.046 | [7] -0.076 | [8] 0.076 | [9] -0.037 | [10] -0.003

SNU13 (UniProt P55769)
inactive: [1] 0.024 | [2] -0.017 | [3] 0.002 | [4] 0.039 | [5] -0.006 | [6] 0.01 | [7] 0.016 | [8] -0.029 | [9] -0.013 | [10] -0.056

Continued:

SNRPA (UniProt P09012)
inactive: [1] -0.019 | [2] 0.042 | [3] 0.001 | [4] -0.045 | [5] 0.029 | [6] -0.018 | [7] 0.015 | [8] 0.022 | [9] 0.003 | [10] 0.006

SNAPIN (UniProt O95295)
inactive: [1] 0.004 | [2] 0.057 | [3] 0.044 | [4] 0.049 | [5] 0.05 | [6] 0.039 | [7] -0.045 | [8] 0.045 | [9] -0.005 | [10] -0.016

SMU1 (UniProt Q2TAY7)
inactive: [1] 0.001 | [2] 0.024 | [3] -0.021 | [4] 0.005 | [5] -0.039 | [6] 0.014 | [7] 0.002 | [8] 0.006 | [9] 0.002 | [10] -0.034

SNRPF (UniProt P62306)
inactive: [1] -0.119 | [2] -0.028 | [3] -0.02 | [4] 0.014 | [5] -0.034 | [6] 0.021 | [7] 0.014 | [8] -0.03 | [9] 0.022 | [10] 0.084

SMIM12 (UniProt Q96EX1)
inactive: [1] 0.22 | [2] 0.007 | [3] 0.065 | [4] 0.025 | [5] 0.07 | [6] -0.067 | [7] -0.018 | [8] 0.018 | [9] -0.044 | [10] -0.033

SOCS2 (UniProt O14508)
inactive: [1] -0.068 | [2] 0.05 | [3] 0.01 | [4] -0.091 | [5] 0.013 | [6] -0.008 | [7] -0.104 | [8] -0.013 | [9] -0.02 | [10] -0.027

SOD2 (UniProt P04179)
inactive: [1] -0.067 | [2] -0.005 | [3] -0.008 | [4] 0.003 | [5] 0.036 | [6] -0.019 | [7] -0.026 | [8] 0.015 | [9] 0.025 | [10] 0.013

— the supplement of paper PMC10849652
